PubChem BioAssay AID1259300 – Sanger Institute, 2017
Screen: 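Kinase and colorectal-mutated gene knock-downs lowering HCT15 viability or boosting drug effects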 (primary screen). Cells: HCT15 colorectal cancer cells. Reagents: siRNA pool against human genes. Challenge: anchor drug or DMSO vehicle added 24 h after seeding: BYL719 1 µM, cetuximab 5 µg/ml, trametinib 10 nM; drug doses chosen to barely affect viability alone. Detection: 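Cell viability after knock-down, as fraction of non-targeting pool wells averaged over replicates, plus robust z-score for knock-down alone; synergy score per drug (BYL719 1 µM, cetuximab 5 µg/ml, trametinib 10 nM)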. Scale: viability z-score, siRNA alone: higher = more viable cells after knock-down. Active means: 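a knock-down without drug that drives the robust viability z-score under -3 is active, i.e. essential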. Meaning of the calls: active = essential: knock-down alone lowers viability (z below -3); inactive = no strong viability loss with knock-down alone.
Here is one part, drawn at random, of 794 reagents tested. 18 of them (2.3%) were called active. 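Calls rest on knock-down alone, not drug synergy; depositor treated synergy scores above 0.15 as synergistic; drug doses alone had little viability effect.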 Further read-outs or replicates are left out here. Not given: the amount of reagent, the time to read-out.

PRKAG1
- viability z-score, siRNA alone: -0.324
- call: inactive

RPS6KL1
- viability z-score, siRNA alone: 0.625
- call: inactive

MAP4K5
- viability z-score, siRNA alone: 0.625
- call: inactive

TAF1
- viability z-score, siRNA alone: 0.111
- call: inactive

MAGI2
- viability z-score, siRNA alone: -0.804
- call: inactive

CDC42BPB
- viability z-score, siRNA alone: -0.489
- call: inactive

GALK1
- viability z-score, siRNA alone: -1.43
- call: inactive

TBCK
- viability z-score, siRNA alone: -1.12
- call: inactive

ROS1
- viability z-score, siRNA alone: 0.47
- call: inactive

NRBP2
- viability z-score, siRNA alone: -0.118
- call: inactive

CKMT1B
- viability z-score, siRNA alone: -0.213
- call: inactive

OXSR1
- viability z-score, siRNA alone: 0.473
- call: inactive

Not a retest: 2 of the entries above.
CKMT1B
- viability z-score, siRNA alone: -0.213
- call: inactive

OXSR1
- viability z-score, siRNA alone: 0.473
- call: inactive
